PubChem BioAssay AID743448 | Peter MacCallum Cancer Centre – 2014
Assay: 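Third-round triage of 106 confirmed candidates in four colon lines under two drugs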 (follow-up of hits). Cell system: four human colon cancer cell lines: HCT116-VR (vorinostat-resistant HCT116 derivative), SW480, SW620 and LIM1215. Knock-down reagent: siRNA pool against human genes, 40 nM siRNA pool. Timing: drug added two days after transfection, read one day later. Conditions: vorinostat 2.5 µM on one half of each plate, etoposide 5 µM on the other half. Cell line and drug panel: SW480 cells with etoposide. Measurement: 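Caspase 3/7 activity by luminescence and live-cell viability by fluorescence, each given as a ratio to mock-transfected wells and as a robust z-score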. Direction: caspase ratio to mock: higher = more caspase activity than mock; viability ratio to mock: higher = more live cells than mock; caspase robust z-score: higher = more caspase activity, more apoptosis; viability robust z-score: higher = more live cells. Active means: 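a row is a hit if caspase relative to mock is 1.6 or above or viability relative to mock is 0.75 or below; wells dying heavily without drug are not called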. Meaning of the calls: active = caspase or viability hit in this panel; inactive = no change, or unhealthy well.
Shown is a random part of the 106 reagents, under one of the conditions tested. 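Calls are per line and drug panel including etoposide, not vorinostat-specific; gene picks needed hits in two or more extra lines with vorinostat versus etoposide.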 Entries without a mark were called inactive.

target gene	caspase ratio to mock	viability ratio to mock	caspase robust z-score	viability robust z-score
C1orf210 (chromosome 1 open reading frame 210)	3.73 (active)	0.84	1.25	-0.21
PNN (pinin, desmosome associated protein)	3.63 (active)	0.86	1.26	-0.08
OR6T1 (olfactory receptor family 6 subfamily T member 1)	4.2 (active)	0.94	1.68	0.4
OSBPL6 (oxysterol binding protein like 6)	1.71 (active)	1.01	-0.24	0.92
RERE (arginine-glutamic acid dipeptide repeats)	2.86 (active)	1.1	0.63	1.55
PCP4 (Purkinje cell protein 4)	3.46 (active)	0.78	1.08	-0.58
CSE1L (chromosome segregation 1 like)	4.19 (active)	1	1.64	0.86
DDX18 (DEAD-box helicase 18)	0.76	0.89	-1	0.16
CAPN12 (calpain 12)	1.38	0.7	-0.55	-1.17
POLR2D (RNA polymerase II subunit D)	5.87 (active)	0.77	2.98	-0.63
RWDD2A (RWD domain containing 2A)	2.17 (active)	1.06	0.08	1.26
AP5S1 (adaptor related protein complex 5 subunit sigma 1)	2.49 (active)	0.59	0.39	-1.84
ANKRD13C-DT (ANKRD13C divergent transcript)	3.01 (active)	0.64	0.75	-1.54
TDP2 (tyrosyl-DNA phosphodiesterase 2)	2.62 (active)	1	0.44	0.84
DNTTIP2 (deoxynucleotidyltransferase terminal interacting protein 2)	0.72	0.84	-1.04	-0.24
BDP1 (BDP1 general transcription factor IIIB subunit)	1.36	0.9	-0.52	0.24
NUP93 (nucleoporin 93)	1.45	0.8	-0.43	-0.46
EIF1AX (eukaryotic translation initiation factor 1A X-linked)	1.01 (active)	0.61	-0.8	-1.73
CDK10 (cyclin dependent kinase 10)	2.34 (active)	0.91	0.22	0.32
SAP130 (Sin3A associated protein 130)	1.72 (active)	1.04	-0.26	1.17
PRRT3 (proline rich transmembrane protein 3)	2.73 (active)	0.86	0.5	-0.1

Continued; the last 4 above are carried over.
target gene	caspase ratio to mock	viability ratio to mock	caspase robust z-score	viability robust z-score
EIF1AX (eukaryotic translation initiation factor 1A X-linked)	1.01 (active)	0.61	-0.8	-1.73
CDK10 (cyclin dependent kinase 10)	2.34 (active)	0.91	0.22	0.32
SAP130 (Sin3A associated protein 130)	1.72 (active)	1.04	-0.26	1.17
PRRT3 (proline rich transmembrane protein 3)	2.73 (active)	0.86	0.5	-0.1
HPCAL1 (hippocalcin like 1)	1.96 (active)	0.94	-0.06	0.49
UTP3 (UTP3 small subunit processome component)	0.86	0.86	-0.91	-0.06
SH3GLB2 (SH3 domain containing GRB2 like, endophilin B2)	0.84	0.92	-0.94	0.31
PSMD13 (proteasome 26S subunit, non-ATPase 13)	1.12	0.87	-0.72	0.02
NUP58 (nucleoporin 58)	1.26	0.76	-0.58	-0.74
MED28 (mediator complex subunit 28)	3.13	0.78	0.82	-0.57
MED26 (mediator complex subunit 26)	6.14 (active)	0.8	3.19	-0.44
C1orf52 (chromosome 1 open reading frame 52)	1.42	0.78	-0.5	-0.56
AQR (aquarius intron-binding spliceosomal factor)	2.97 (active)	0.56	0.73	-2.08
H1-5 (H1.5 linker histone, cluster member)	3.49 (active)	0.54	1.1	-2.13
NUP205 (nucleoporin 205)	2.59 (active)	0.64	0.43	-1.56
AKAP8 (A-kinase anchoring protein 8)	2.88 (active)	0.96	0.65	0.58
POLR2K (RNA polymerase II, I and III subunit K)	3.04 (active)	0.78	0.77	-0.62
